Data as given in PubChem BioAssay AID504791 (Drosophila RNAi Screening Center, 2011)
Screen: 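Genes whose knock-down strengthens or weakens small-RNA reporter silencing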 (primary screen). System: Drosophila S2-derived reporter cells. Reagent: long dsRNA against Drosophila genes, about 150-250 ng dsRNA per well (siRNA assay); about 80-120 ng (miRNA assay). Timing: about 5 days (siRNA assay); about 4 days (miRNA assay). Conditions: copper sulfate induction of reporters: 25 µM (siRNA assay); 200 mM stated (miRNA assay), 1-2 days before reading. Read-out: 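Per-well ratio of Renilla over firefly light, expressed relative to that plate's average ratio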. Direction: siRNA reporter hit score: higher = 3 marks a strong hit with raised ratio; -3 a strong hit with lowered ratio. Hit rule: 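First-pass picks had plate-scaled ratios over 1.5 for the siRNA assay, over 1.6 for the miRNA assay, or under 0.6; two distinct dsRNAs had to score alike on retest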.
The deposit covers about 23,000 reagents; shown is an unselected part of those that have a named target and a result. In the full data, 199 (0.86%) got an active call. 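Plate-scaled ratios behind the calls are not deposited; printed light signals are raw; many rows marked increased or decreased are still called inactive.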 The numbers tell different reagents against one gene apart. Names joined by + are all predicted targets of the reagent.

| Target gene | reagent | siRNA reporter hit score | stable assay Renilla, run 1 (luminescence) | stable assay firefly, run 1 (luminescence) | call |
| --- | --- | --- | --- | --- | --- |
| grp + CG31782 (retired record) | 1 | – | 19074 | 1.87e6 | inactive |
| akirin | 1 | -3 | 9206 | 4.00e5 | inactive |
| Jon25Biii | 1 | – | 7562 | 4.17e5 | inactive |
| Ir7b | 1 | – | 6554 | 3.70e5 | inactive |
| ETH | 1 | – | 6979 | 3.35e5 | inactive |
| NK7.1 | 1 | – | 7510 | 3.68e5 | inactive |
| mthl4 | 1 | – | 5816 | 3.34e5 | inactive |
| Oatp30B | 1 | – | 5207 | 4.53e5 | inactive |
| Mitf | 1 | – | 6304 | 4.09e5 | inactive |
| Mitf | 2 | – | 5231 | 4.14e5 | inactive |
| CG16956 | 1 | – | 7000 | 3.66e5 | inactive |
| Pez | 1 | – | 8061 | 4.23e5 | inactive |
| CG13427 | 1 | – | 6076 | 4.56e5 | inactive |
| elfless | 1 | – | 8445 | 5.78e5 | inactive |
| CG11168 | 1 | – | 8611 | 3.06e5 | inactive |
| CG10555 | 1 | – | 4590 | 1.90e5 | inactive |
| CG10555 | 2 | – | 3628 | 3.49e5 | inactive |
| Or98b | 1 | – | 6703 | 3.65e5 | inactive |
| Or98b | 2 | – | 8520 | 4.26e5 | inactive |
| CG12259 | 1 | – | 6747 | 3.86e5 | inactive |
| CG12259 | 2 | – | 3743 | 3.24e5 | inactive |
| otu | 1 | – | 4956 | 2.88e5 | inactive |
| CG42237 | 1 | – | 6151 | 4.98e5 | inactive |
| Clic | 1 | – | 6079 | 4.64e5 | inactive |
| CG30105 | 1 | – | 8014 | 5.36e5 | inactive |
| CG10651 | 1 | – | 6871 | 4.20e5 | inactive |
| CG31676 | 1 | – | 7327 | 4.65e5 | inactive |
| CG9876 | 1 | – | 6158 | 2.97e5 | inactive |
| flw | 1 | – | 6016 | 5.66e5 | inactive |
| flw | 2 | – | 6942 | 6.78e5 | inactive |
| CG31760 | 1 | – | 6231 | 3.16e5 | inactive |
| CG15876 | 1 | – | 6558 | 4.85e5 | inactive |
| CG17375 | 1 | – | 7830 | 4.68e5 | inactive |
| msb1l | 1 | – | 10218 | 1.79e6 | inactive |
| CG41020 (retired record) | 1 | – | 3920 | 3.30e5 | inactive |
| aux | 1 | – | 7682 | 2.72e5 | inactive |
| eIF1A | 1 | – | 5447 | 2.53e5 | inactive |
| mino | 1 | – | 6887 | 3.50e5 | inactive |
| CG14492 | 1 | – | 5127 | 3.63e5 | inactive |
| SLIRP1 + anox | 1 | – | 8922 | 4.89e5 | inactive |
| Nepl15 | 1 | – | 10037 | 3.53e5 | inactive |
| Tsp42Ep | 1 | – | 28199 | 1.94e6 | inactive |
| TwdlB | 1 | – | 6290 | 5.74e5 | inactive |
| CG10508 | 1 | – | 9429 | 4.88e5 | inactive |
| CG10508 | 2 | – | 6922 | 4.14e5 | inactive |
| CG31806 | 1 | – | 6551 | 3.51e5 | inactive |
| CG30002 | 1 | – | 4879 | 4.49e5 | inactive |
| Sobp | 1 | – | 7599 | 3.77e5 | inactive |
| TfIIB | 1 | – | 6050 | 2.97e5 | inactive |
| zuc | 1 | – | 6588 | 1.04e6 | inactive |
| prod | 1 | – | 9641 | 3.96e5 | inactive |
| CG1316 | 1 | – | 7515 | 4.99e5 | inactive |
| CG30091 | 1 | – | 8946 | 3.95e5 | inactive |
| CG3625 | 1 | – | 4332 | 3.87e5 | inactive |
| CG3625 | 2 | – | 12486 | 4.29e5 | inactive |
| CG17224 | 1 | – | 8689 | 5.35e5 | inactive |
| shf | 1 | – | 5547 | 3.61e5 | inactive |

Looked up above.
For “call”, CG14492 has inactive
Sobp, stable assay Renilla, run 1 (luminescence) = 7599
Pez, call → inactive
